Hit rate of the full screen: of about 290,000 compounds, about 110 (0.038%) were called active. Calls follow the shape of the dose curve; as a rule, active = well fitted inhibition curve with a large enough effect in the polarisation, with a control signal flat (not every such curve was filed as active); inconclusive = small, poorly fitted or top-dose-only effect, or effect the other way, or a change in a side signal; inactive = no such curve, though single readings can be large or run the other way; the % refers to the polarisation. The inconclusive results got no clear call from the source. Potencies of inconclusive entries are doubtful fits and often do not repeat.
Target: Histone-lysine N-methyltransferase 2A (Homo sapiens) (UniProt Q03164)
Test: qHTS Fluorescence Polarization Assay for Inhibitors of MLL CXXC domain - DNA interaction
Details: MLL-CXXC / FITC-HOXA9 DNA fluorescence polarization; series mostly up to 115 µM
From the text: NIH Chemical Genomics Center [NCGC] NIH Molecular Libraries Probe Production centers Network [MLPCN] MLPCN Grant: DA027717-01A1 Assay Submitter (PI): John Bushweller NCGC Assay Overview: The MLL (Mixed Lineage Luekemia) gene is involved in chromosomal translocation that results in either acute lymphoid leukemia (ALL) or acute myeloid leukemia (AML). Chromasomal translocation of MLL gene is responsible for the fusion of N-terminal MLL to more than 60 different partner genes in frame. Many of the MLL partner genes contain transcription activation domains or function as transcriptional activators. Despite the heterogeneity of fusion partners, the N-terminus of MLL fusion proteins always consists of the N-terminal menin binding motif and the CXXC domain. The MLL-CXXC domain specifically recognizes unmethylated CpG sequences of the HOX-A gene. Disruption of the MLL-CXXC and HOX-A gene interaction leads to down regulation of HOX-A gene expression and may potentially reverse leukemogenesis. We have miniaturized and optimized an in-vitro assay to screen for inhibitors of the MLL-CXXC domain and HOX-A DNA interaction, which could have utility in MLL fusion leukemias.
The affinity purified MLL-CXXC domain, unlabeled HOX-A9 DNA strand, fluorescein (FLSN) labeled HOX-A9 DNA strand were kindly supplied by the laboratory of Dr. John Bushweller, University of Virginia. All reagents were stored in single use aliquots at -80C. Assay Reagents: Assay buffer: 50 mM TRIS-HCl pH 7.5, 50 mM NaCl, 1 mM DTT. Add 0.05% BSA prior to reaction setup. Assay Procedure: 1.Dispense 1 ul of a 7 uM MLL-CXXC solution prepared in assay buffer into column 1-48. 2.Transfer 23 nl of compounds and unlabeled HOX-A9 per well. 3.Incubate for 5 minutes at ambient. 4.Dispense 1ul of a 50 nM FLSN-HOX-A9 solution prepared in assay buffer into columns 1-48 5.Centrifuge for 30 seconds at 1000 RPM. 6.Incubate for 30 minutes at ambient. 7.Read using the Envision reader fluorescent polarization protocol.
Potency is read from the fitted curve at half-maximal effect.

By UniProt entry, the sequences of proteins in these tests, tags left out.
UniProt Q03164, whole entry, looked up: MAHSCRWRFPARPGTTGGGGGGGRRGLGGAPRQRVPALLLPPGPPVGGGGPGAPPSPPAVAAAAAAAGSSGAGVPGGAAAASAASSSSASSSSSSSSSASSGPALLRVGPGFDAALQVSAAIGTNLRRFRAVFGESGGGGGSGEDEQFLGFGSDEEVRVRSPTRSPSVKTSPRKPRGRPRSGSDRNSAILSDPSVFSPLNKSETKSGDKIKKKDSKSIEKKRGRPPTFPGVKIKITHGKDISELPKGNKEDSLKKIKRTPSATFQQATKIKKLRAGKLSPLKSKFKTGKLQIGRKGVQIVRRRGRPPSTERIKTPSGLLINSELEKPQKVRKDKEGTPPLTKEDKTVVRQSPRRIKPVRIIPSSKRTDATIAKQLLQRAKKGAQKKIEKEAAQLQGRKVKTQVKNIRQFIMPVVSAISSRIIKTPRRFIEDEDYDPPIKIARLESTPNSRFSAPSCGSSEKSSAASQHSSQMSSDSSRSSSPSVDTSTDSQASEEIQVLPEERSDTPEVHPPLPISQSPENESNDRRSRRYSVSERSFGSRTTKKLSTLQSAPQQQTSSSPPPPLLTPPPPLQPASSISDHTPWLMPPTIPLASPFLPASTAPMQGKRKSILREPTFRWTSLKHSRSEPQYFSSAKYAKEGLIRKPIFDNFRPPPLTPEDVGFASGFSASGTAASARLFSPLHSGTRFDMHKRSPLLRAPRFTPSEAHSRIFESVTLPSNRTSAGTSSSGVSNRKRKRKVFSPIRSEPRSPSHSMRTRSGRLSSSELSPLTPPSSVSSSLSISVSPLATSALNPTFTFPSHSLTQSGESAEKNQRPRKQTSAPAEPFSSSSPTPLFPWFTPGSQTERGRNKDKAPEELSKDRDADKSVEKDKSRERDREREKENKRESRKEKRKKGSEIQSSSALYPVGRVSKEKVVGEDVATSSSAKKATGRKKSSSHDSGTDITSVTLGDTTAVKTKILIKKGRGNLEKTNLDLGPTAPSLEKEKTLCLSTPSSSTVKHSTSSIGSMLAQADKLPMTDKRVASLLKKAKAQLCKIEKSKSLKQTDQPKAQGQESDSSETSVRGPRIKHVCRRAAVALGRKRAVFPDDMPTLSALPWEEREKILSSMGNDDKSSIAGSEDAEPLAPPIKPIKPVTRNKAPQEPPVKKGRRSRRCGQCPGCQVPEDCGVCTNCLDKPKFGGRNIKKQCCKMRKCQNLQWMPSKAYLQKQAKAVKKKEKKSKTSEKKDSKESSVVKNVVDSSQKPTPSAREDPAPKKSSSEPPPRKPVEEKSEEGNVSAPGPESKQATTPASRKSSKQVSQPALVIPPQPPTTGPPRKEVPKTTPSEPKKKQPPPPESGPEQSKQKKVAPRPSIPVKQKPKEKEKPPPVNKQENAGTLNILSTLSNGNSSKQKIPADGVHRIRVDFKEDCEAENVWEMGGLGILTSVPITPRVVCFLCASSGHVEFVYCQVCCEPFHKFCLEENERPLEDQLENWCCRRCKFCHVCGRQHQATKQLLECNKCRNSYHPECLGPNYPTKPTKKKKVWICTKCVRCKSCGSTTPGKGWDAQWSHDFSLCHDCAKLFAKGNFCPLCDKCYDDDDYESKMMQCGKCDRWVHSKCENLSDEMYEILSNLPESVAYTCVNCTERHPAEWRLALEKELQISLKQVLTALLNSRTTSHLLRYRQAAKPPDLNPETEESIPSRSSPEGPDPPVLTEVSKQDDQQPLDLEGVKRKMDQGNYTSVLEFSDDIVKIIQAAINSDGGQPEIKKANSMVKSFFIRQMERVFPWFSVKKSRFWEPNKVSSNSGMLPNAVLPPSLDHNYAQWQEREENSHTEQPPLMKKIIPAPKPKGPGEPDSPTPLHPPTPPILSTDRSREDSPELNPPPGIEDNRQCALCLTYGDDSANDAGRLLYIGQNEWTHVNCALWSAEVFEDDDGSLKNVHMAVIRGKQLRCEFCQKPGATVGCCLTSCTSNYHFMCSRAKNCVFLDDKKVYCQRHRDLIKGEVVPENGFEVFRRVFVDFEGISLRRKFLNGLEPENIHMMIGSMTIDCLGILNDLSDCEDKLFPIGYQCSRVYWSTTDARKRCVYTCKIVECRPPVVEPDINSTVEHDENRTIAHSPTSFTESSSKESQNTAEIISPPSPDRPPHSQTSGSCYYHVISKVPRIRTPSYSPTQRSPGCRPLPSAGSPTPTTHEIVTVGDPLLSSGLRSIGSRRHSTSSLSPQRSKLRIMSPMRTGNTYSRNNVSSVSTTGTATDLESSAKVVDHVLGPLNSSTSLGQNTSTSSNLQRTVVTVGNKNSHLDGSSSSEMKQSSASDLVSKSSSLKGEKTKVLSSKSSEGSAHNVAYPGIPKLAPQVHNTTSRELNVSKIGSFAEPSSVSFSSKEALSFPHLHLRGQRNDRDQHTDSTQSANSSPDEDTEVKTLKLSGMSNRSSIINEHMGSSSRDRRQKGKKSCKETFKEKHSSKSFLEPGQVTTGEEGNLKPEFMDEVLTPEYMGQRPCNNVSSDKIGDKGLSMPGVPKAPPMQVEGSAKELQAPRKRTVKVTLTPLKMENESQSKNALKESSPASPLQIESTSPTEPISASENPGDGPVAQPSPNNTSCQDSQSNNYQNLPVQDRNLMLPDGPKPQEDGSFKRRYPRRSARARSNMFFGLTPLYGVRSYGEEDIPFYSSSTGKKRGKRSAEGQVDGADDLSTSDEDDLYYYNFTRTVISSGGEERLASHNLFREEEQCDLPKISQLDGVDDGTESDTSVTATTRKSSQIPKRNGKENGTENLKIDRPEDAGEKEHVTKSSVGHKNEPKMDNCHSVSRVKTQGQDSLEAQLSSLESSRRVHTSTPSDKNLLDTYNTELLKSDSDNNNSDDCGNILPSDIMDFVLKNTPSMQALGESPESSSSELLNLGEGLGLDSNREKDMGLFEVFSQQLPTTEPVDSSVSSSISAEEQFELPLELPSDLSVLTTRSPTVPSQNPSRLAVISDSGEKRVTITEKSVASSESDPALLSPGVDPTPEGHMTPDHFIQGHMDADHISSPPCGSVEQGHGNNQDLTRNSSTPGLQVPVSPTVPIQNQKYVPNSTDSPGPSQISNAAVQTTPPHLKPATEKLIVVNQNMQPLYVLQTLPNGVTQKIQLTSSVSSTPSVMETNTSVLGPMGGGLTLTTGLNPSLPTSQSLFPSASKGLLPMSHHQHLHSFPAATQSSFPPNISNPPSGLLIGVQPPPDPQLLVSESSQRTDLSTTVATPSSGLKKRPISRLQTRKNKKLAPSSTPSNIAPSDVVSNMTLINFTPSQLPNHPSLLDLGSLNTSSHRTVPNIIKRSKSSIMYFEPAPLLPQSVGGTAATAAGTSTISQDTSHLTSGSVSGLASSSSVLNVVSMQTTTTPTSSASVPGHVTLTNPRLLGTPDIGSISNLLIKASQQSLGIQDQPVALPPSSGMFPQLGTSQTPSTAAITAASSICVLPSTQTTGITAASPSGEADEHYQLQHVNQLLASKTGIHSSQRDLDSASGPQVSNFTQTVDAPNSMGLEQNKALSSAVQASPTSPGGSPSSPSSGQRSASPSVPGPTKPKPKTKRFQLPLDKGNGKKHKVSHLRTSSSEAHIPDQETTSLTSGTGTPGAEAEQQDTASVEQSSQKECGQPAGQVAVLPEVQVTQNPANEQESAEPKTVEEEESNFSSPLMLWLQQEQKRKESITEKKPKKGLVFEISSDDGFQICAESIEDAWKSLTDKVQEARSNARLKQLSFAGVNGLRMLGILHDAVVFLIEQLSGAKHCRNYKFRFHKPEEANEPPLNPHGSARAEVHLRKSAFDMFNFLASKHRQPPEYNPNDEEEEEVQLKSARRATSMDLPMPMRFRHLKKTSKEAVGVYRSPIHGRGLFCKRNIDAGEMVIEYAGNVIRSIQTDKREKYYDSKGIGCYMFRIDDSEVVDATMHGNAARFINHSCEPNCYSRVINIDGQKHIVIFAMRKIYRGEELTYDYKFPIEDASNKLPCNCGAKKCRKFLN

Q: How did the Potency turn out when `O=C(O)c1cc(NC(=O)c2ccc(Br)cc2)cc(NC(=O)c2ccc(Br)cc2)c1` was run?
A: inconclusive: 7.94 µM [inhibitor, partial curve]

Q: For `COc1cc(/C=C2/C(=O)NN(c3ccc(Cl)cc3)C2=O)cc(Br)c1O`, which Potency is on record?
A: inconclusive: 5.62 µM [inhibitor, partial curve]

Q: Which Potency does the source give for `O=C(O)COc1ccccc1/C=N/NC(=O)CSc1nnc(SCc2cccc3ccccc23)s1` here?
A: inconclusive: 70.8 µM [inhibitor, single point]

Q: `O=C1NN(c2ccc(F)c(Cl)c2)C(=O)/C1=C\c1cccc(OC(=O)c2cccs2)c1` was tested. Which Potency did it give?
A: inconclusive: 11.2 µM [inhibitor, partial curve]
